Legend:
[1] = system: ApoE−/− mice; test: Plasma LDH content, high-fat diet atherosclerosis model; format: in vivo; conditions: 18th week, compared to the model group; P<0.05
From the text: Upon arrival, ApoE−/− mice were acclimatized to the experimental facility for 3 days. […] Control mice were fed a regular diet, while the remaining mice were fed a high-fat diet for 18 weeks. […] At 8 weeks of high-fat feeding, the animals underwent echocardiography and blood biochemical tests. […] Drug administration continued for 10 weeks. During the experiment, the animals' appearance, behavior, and physical condition were observed, and their body weight, echocardiography, serum lipids (TC, TG, HDL-C, and LDL-C), and blood biochemistry (LDH, SOD, and MDA) were monitored. At the end of the experiment (Week 18), hearts and aortas were collected for Oil Red O staining and histopathological analysis. Animals were fasted the night before blood collection. Blood samples were collected and anticoagulated with heparin to prepare plasma for the detection of TG, TC, HDL-C, LDL-c, and LDH. Blood was collected at six time points: […]

[2] = system: ApoE−/− mice; test: Heart weight and heart weight index (tibial length corrected); format: in vivo; conditions: week 18, 10 weeks QD: Atorvastatin 20 mg/kg P.O., AQ-C-a 300 mg/kg P.O., DMS-ASD 300 mg/kg P.O., DMS 20 mg/kg SC
Method: At the experimental endpoint, hearts and tibias were collected. The heart was weighed and its weight index was calculated using tibial length for correction, with the formula: Heart Index=Heart Weight (g)/Tibial Length (cm)×100%. The heart was fixed in 4% PFA and subjected to HE staining to evaluate fat plaques in the outflow tract.

For CC(C)c1c(C(=O)Nc2ccccc2)c(-c2ccccc2)c(-c2ccc(F)cc2)n1CC[C@@H](O)C[C@@H](O)CC(=O)O [Atorvastatin, reference compound], the “Effect on plasma LDH (in words)” value [1] was “significant reductions” and the Cardiac weight index [2] was 0.102 ± 0.005 g/cm.

— US20250127754A1, “Pharmaceutical Application of Dimyricetin-yl-diselenide in Atherosclerosis” (Shanghai Spark Pharmaceutical Co., Ltd., priority 2023, published 2025)
